Data: paper PMC10972746, “Substrate-induced condensation activates plant TIR domain proteins” (Nature, 2024)
Results are given in words; binding and its absence hold for the method and conditions named. Some binding calls cover weakened binding; strength is not graded here. Tags and fused reporters may be left off the sequences shown.

Target: RBA1–GFP (A. thaliana accession Ag-0) (UniProt F4HT77)
Test: SEC; gel filtration of purified GFP-fused proteins; Superose 6 column markers shown; peak fractions on SDS-PAGE with Coomassie staining; both purified

B1: RBA1–GFP (protein, UniProt F4HT77 1-191)
chain: MTSVSPRYRNVPVPKVFLSFRGEEIRHGFISHLADALERYGIMFIIDKDEQRGNDLTSLLLRIKESKVALVIFSSRFAESRFCMDEIVKMKECVDERKLLVIPIFYKVRARDVSGRTGDFGKKFWALAQKSRGCQIKEWMEALECISNKMGLSLGDGRSEADFIKEIVKEVERVLATFTSEDTEDHHCQTV
  binding: binds
